Measurements published in the supplement of paper PMC12595434, “Development of retinoid nuclear receptor pathway antagonists through targeting aldehyde dehydrogenase 1A3” (iScience, 2025).
This is one part of the list. The data scatter; read single values as rough.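 Many melting curves are irregular; where none melted, Tm was taken as 64 °C.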

Sequences of proteins named here, by UniProt entry; tags and fusion partners are left off. A change or cut given only in a name is not applied to a line headed by its entry.
UniProt Q96RK4: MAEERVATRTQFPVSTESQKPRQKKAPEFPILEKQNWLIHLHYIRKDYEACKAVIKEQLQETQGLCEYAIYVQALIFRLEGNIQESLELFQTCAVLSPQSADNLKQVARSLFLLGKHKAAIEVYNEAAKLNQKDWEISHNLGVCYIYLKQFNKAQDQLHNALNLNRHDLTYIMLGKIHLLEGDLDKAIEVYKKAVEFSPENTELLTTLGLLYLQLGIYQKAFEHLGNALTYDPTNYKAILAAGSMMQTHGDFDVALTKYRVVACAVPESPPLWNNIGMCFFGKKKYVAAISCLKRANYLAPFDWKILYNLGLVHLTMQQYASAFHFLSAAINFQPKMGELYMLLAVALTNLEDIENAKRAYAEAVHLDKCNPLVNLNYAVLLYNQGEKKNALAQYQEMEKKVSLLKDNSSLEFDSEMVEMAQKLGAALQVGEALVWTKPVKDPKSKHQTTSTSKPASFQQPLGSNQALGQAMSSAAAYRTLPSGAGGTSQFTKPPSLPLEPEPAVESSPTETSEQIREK
UniProt Q96IZ7: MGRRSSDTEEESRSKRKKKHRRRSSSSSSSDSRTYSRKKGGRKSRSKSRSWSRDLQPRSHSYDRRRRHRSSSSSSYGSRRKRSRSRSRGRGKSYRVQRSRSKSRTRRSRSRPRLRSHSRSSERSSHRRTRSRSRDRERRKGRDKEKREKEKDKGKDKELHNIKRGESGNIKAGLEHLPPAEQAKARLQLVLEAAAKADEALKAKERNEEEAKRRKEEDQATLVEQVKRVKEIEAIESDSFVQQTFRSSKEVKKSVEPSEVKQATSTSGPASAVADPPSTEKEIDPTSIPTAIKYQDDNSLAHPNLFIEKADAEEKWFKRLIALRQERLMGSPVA
UniProt Q96PZ2, whole entry: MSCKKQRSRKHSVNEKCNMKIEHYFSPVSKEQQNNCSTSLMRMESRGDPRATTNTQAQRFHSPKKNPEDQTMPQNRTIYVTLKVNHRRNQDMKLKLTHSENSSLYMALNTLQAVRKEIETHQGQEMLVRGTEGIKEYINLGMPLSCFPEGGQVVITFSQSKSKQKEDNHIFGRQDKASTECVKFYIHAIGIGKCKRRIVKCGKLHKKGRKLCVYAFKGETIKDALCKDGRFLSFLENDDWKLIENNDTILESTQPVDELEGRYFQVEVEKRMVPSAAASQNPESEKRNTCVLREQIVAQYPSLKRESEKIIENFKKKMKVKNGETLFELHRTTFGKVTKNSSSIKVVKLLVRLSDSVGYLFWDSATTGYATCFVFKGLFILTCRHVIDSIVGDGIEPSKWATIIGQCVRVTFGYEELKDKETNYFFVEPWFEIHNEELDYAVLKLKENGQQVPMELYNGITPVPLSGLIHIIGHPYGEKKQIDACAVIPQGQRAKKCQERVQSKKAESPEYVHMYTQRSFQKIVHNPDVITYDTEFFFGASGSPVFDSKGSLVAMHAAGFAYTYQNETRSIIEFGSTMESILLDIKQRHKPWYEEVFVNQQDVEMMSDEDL
UniProt Q96K37: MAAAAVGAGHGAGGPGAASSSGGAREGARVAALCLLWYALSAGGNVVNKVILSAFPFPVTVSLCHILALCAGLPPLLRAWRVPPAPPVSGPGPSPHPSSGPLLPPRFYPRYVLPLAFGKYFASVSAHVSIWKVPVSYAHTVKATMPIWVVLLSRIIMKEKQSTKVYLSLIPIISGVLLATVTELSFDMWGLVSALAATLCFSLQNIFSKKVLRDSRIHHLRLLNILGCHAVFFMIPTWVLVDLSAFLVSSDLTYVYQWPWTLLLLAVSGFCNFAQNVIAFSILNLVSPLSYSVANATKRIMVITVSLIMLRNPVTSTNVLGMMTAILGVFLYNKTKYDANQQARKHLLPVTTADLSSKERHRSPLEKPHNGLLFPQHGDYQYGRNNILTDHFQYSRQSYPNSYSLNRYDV
UniProt Q96H22, whole entry: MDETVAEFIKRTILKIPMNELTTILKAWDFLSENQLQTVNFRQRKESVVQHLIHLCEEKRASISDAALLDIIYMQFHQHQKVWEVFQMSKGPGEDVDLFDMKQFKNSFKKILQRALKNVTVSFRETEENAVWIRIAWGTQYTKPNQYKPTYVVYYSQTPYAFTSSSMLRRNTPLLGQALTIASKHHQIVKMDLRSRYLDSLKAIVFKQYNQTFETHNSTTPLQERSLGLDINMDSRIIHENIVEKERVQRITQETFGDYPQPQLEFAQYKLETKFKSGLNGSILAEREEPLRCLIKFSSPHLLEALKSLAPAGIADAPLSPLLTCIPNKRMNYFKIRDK
UniProt Q96GK7: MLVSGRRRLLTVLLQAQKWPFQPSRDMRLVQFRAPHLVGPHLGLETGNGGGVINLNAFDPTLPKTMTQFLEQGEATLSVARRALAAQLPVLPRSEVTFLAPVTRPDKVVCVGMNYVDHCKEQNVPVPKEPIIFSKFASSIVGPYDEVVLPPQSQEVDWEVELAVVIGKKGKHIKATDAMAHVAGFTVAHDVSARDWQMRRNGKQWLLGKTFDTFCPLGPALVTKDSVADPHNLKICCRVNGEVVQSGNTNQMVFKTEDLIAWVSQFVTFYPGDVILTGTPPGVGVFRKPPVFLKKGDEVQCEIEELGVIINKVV
UniProt Q96EP1: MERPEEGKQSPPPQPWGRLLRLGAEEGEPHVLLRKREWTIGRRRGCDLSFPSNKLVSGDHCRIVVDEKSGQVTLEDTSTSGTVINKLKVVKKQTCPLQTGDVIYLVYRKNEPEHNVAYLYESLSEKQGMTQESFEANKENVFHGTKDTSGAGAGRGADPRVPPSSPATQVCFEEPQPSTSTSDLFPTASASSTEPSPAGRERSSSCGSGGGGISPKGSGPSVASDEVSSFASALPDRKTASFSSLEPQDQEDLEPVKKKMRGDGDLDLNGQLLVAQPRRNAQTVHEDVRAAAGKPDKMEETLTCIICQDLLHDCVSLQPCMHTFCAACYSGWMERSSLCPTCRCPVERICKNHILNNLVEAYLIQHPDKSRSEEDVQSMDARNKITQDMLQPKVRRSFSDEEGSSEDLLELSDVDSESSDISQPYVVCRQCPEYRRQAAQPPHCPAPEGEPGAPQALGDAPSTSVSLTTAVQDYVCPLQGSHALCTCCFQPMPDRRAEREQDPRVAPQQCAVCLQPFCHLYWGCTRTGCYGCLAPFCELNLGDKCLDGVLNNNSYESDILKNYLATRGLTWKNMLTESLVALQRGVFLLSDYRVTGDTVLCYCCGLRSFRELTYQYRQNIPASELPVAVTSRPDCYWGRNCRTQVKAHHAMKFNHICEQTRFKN
UniProt Q96EK9: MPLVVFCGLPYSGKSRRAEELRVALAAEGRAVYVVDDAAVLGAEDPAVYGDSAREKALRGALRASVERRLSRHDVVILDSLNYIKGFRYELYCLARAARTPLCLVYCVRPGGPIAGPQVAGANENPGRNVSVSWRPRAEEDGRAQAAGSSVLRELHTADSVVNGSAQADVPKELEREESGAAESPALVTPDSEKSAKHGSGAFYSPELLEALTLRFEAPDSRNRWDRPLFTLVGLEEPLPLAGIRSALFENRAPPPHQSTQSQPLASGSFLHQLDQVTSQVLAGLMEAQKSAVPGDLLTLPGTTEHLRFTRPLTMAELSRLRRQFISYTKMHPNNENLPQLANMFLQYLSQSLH
UniProt Q96Q07: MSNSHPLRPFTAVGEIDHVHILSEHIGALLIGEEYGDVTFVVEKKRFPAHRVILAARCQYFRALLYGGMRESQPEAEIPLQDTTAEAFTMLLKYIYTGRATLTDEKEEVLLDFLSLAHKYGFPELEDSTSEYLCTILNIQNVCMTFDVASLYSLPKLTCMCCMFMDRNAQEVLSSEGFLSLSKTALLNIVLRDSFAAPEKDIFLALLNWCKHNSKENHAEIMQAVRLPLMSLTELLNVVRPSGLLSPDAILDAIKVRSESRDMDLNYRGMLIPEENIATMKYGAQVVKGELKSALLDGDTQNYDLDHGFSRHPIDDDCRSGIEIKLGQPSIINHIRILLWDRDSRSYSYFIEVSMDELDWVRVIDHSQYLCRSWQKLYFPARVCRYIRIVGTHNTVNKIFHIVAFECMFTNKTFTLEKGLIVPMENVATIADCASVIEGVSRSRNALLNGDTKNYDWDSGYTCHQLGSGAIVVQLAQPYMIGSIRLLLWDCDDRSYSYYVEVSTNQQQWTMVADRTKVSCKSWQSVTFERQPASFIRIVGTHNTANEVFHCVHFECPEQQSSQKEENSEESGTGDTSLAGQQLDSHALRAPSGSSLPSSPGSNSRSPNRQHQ
UniProt Q96IZ0: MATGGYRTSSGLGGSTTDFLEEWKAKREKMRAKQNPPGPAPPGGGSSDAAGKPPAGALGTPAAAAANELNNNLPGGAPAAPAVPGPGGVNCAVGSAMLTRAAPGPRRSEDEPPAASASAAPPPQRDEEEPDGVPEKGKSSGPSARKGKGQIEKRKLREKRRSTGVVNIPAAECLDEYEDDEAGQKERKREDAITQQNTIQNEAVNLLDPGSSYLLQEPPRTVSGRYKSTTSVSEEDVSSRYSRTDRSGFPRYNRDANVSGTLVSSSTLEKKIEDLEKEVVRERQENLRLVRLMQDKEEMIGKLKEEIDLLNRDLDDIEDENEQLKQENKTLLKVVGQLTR
UniProt Q96FS4: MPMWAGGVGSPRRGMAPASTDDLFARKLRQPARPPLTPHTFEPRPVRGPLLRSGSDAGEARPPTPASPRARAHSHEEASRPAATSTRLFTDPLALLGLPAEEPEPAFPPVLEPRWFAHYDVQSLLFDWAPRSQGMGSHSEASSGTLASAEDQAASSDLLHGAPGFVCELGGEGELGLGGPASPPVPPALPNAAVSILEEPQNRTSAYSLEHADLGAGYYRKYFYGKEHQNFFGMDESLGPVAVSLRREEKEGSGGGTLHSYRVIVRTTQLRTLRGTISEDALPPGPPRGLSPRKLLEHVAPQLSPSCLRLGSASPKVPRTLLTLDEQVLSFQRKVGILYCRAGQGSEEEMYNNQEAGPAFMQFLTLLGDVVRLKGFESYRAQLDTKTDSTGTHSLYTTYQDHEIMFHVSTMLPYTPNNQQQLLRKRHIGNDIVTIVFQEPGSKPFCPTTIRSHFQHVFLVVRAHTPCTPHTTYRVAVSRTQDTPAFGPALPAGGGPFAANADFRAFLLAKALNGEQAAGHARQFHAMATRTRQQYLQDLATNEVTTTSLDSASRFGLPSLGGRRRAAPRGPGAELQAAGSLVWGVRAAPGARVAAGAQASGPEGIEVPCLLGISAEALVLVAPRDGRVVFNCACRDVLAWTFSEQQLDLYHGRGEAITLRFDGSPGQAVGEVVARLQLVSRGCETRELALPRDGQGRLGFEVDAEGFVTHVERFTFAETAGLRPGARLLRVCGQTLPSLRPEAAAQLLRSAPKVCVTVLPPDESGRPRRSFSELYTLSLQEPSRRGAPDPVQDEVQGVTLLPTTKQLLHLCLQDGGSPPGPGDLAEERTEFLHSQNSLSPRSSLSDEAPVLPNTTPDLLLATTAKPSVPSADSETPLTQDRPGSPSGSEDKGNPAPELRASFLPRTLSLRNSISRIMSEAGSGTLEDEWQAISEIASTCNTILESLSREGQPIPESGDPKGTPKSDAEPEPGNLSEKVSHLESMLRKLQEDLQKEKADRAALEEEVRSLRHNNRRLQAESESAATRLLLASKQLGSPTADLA
UniProt Q96J01: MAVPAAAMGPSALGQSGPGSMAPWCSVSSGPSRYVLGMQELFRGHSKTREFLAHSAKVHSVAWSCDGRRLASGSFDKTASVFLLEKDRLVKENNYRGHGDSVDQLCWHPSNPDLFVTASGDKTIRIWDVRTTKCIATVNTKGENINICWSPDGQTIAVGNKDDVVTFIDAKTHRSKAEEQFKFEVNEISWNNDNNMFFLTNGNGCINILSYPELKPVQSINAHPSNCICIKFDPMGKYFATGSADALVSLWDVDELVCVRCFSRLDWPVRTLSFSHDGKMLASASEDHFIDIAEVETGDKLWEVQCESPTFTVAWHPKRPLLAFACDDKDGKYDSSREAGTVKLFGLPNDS
UniProt Q96EV8: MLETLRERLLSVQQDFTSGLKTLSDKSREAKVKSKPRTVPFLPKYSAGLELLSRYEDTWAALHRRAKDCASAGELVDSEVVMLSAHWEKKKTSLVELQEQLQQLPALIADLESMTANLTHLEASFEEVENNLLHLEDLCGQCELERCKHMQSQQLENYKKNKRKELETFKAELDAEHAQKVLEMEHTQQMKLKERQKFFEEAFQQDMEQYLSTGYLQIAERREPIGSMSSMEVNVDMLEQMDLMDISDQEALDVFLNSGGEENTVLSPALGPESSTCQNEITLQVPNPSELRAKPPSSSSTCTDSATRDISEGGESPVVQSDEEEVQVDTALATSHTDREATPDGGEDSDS
UniProt Q96GA7: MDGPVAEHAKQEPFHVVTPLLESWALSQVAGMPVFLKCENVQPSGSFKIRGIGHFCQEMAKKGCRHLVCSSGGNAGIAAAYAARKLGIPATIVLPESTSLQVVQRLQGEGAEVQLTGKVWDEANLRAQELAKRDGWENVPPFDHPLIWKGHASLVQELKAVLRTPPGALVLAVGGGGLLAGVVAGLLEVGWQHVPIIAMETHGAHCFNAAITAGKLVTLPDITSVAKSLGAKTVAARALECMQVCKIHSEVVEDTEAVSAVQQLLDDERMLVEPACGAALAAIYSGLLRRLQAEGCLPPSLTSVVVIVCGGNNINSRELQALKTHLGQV

The targets below were run with CCc1cnccc1C(=O)Nc1cc2c(cc1F)NC(=O)CC2 (assay: melting temperature shift (DMSO Tm minus MBE1-treated Tm) in cellular thermal proteome profiling; higher = less thermal stabilization by MBE1 (negative = stabilized by MBE1)). Settings: A375; MBE1 concentration: 1 uM.
In the case of PGAM5 (UniProt Q96HS1), the melting temperature shift was 0.315 °C. Work on UniProt Q96RK4 yielded a melting temperature shift of -2.04 °C. For NEURL4 (UniProt Q96JN8), the melting temperature shift was 0.368 °C. In the case of RSRC1 (UniProt Q96IZ7), the melting temperature shift was 0.569 °C. Target MVB12A (UniProt Q96EY5) has a melting temperature shift of -0.47 °C. Work on TGS1 (UniProt Q96RS0) yielded a melting temperature shift of -0.167 °C. In the case of MED8 (UniProt Q96G25), the melting temperature shift was -0.311 °C. Work on AJUBA (UniProt Q96IF1) yielded a melting temperature shift of -0.688 °C. Work on UniProt Q96PZ2 yielded a melting temperature shift of -0.195 °C. Work on ZNF668 (UniProt Q96K58) yielded a melting temperature shift of -0.116 °C. Target SLC35E1 (UniProt Q96K37) has a melting temperature shift of 0.779 °C. Work on UniProt Q96H22 yielded a melting temperature shift of -2.63 °C. Work on FNBP1 (UniProt Q96RU3) yielded a melting temperature shift of -0.151 °C. Target FAHD2A (UniProt Q96GK7) has a melting temperature shift of -1.36 °C. Target SEC62 (UniProt Q99442) has a melting temperature shift of -2.05 °C. UniProt Q96EP1 gave a melting temperature shift of -1.14 °C. Work on KTI12 (UniProt Q96EK9) yielded a melting temperature shift of 0.113 °C. VWA9 (UniProt Q96SY0) was tested, and the melting temperature shift was 0.653 °C. UniProt Q99504 gave a melting temperature shift of -0.73 °C. Target UniProt Q96GV9 has a melting temperature shift of -4.41 °C. For UniProt Q96Q07, the melting temperature shift was 1.12 °C. With WDR34 (UniProt Q96EX3) the melting temperature shift was 0.574 °C. In the case of PAWR (UniProt Q96IZ0), the melting temperature shift was -2.38 °C. With CDK5RAP1 (UniProt Q96SZ6) the melting temperature shift was -0.0128 °C. CHAMP1 (UniProt Q96JM3) showed a melting temperature shift of -0.0518 °C. PDXP (UniProt Q96GD0) was tested, and the melting temperature shift was -2.31 °C. For REEP6 (UniProt Q96HR9), the melting temperature shift was 4.56 °C. SIPA1 (UniProt Q96FS4) was tested, and the melting temperature shift was 0.293 °C. THOC3 (UniProt Q96J01) showed a melting temperature shift of -0.788 °C. In the case of IWS1 (UniProt Q96ST2), the melting temperature shift was -0.493 °C. UniProt Q96G61 gave a melting temperature shift of -0.879 °C. DTNBP1 (UniProt Q96EV8) was tested, and the melting temperature shift was 1.29 °C. For SDSL (UniProt Q96GA7), the melting temperature shift was -0.0532 °C. Work on UniProt Q96N64 yielded a melting temperature shift of 2.09 °C. Target CARD19 (UniProt Q96LW7) has a melting temperature shift of -0.168 °C. UniProt Q96JI7 gave a melting temperature shift of 2.96 °C.
